These are yes or no findings as the source states them, for the method shown. In cells and extracts the contact can be indirect. Some results given as binding are weak or reduced against the parent protein; the word gives no strength.
Molecular target: Sea1-TAP (S. cerevisiae) (UniProt P47170)
Experiment: co-IP; SEAC and isolated wing purified using a TAP tag in Sea1 (Sea1-TAP strains), Coomassie-stained SDS-PAGE

Chains of the proteins cited; added tags and fusions are not shown.
UniProt P47170: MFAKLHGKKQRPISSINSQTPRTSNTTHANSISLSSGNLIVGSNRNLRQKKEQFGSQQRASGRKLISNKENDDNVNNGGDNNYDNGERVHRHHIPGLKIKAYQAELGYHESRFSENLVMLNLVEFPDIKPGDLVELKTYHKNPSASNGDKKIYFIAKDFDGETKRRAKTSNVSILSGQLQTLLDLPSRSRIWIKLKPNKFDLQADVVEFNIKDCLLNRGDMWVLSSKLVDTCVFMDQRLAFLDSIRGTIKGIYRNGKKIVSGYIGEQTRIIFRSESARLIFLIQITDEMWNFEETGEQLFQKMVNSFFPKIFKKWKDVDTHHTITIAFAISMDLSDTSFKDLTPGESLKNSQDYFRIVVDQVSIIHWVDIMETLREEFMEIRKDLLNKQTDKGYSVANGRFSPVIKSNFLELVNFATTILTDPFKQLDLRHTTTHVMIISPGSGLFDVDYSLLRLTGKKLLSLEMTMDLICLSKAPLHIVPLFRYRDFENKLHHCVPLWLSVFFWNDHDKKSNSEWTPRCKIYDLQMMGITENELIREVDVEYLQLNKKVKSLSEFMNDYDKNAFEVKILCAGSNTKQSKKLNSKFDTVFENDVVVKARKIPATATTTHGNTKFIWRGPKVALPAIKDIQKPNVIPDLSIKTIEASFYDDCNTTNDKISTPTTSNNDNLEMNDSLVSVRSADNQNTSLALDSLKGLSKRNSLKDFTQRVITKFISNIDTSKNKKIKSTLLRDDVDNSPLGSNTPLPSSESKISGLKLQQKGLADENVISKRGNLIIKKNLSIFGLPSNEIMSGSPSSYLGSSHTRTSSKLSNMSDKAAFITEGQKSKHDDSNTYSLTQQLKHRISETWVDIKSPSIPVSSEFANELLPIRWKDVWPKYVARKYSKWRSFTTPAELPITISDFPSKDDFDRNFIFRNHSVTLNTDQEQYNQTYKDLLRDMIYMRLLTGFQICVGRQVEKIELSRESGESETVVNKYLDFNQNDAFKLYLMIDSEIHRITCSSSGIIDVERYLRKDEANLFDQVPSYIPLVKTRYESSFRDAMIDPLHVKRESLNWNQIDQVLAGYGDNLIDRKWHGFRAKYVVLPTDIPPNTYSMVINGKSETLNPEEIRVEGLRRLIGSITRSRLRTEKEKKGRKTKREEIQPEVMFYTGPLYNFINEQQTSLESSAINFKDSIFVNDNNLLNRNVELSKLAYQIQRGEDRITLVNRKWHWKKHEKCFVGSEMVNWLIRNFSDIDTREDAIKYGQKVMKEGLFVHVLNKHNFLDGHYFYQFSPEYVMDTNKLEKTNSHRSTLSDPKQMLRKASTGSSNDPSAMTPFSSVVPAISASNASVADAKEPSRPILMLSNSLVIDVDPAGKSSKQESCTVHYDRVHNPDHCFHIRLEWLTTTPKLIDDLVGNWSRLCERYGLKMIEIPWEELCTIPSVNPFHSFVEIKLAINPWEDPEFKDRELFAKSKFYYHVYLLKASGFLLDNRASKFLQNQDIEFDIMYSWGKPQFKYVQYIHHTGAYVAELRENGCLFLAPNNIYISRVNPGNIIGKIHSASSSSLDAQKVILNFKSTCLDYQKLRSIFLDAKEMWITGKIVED

B1: Npr2 (natural protein, UniProt P39923 1-615, looked up)
chain: MLSYFQGFVPIHTIFYSVFHPTEGSKIKYEFPPNNLKNHGINFNTFKNYIIPKPILCHKLITFKYGTYRIVCYPVTINSPIYARNFFSFNFVFVFPYDCETSPYEPAITRLGKMFKVLEEQNQLLSKSERDPVFFDLKVLENSTTTPSTAGPSSTPNPSSNTTPTHPTSEKDTKDMRSSRYSDLIKDLGLPQSAFSIQDLLMRIFQDLNNYSECLIPIDEGNAVDIKIFPLLRPPTTCVSLEDVPLSSVNLKKIIDVNWDPTMMSIVPYIDGLNSIAKISKLSNSDPGLVIECIRHLIYYKCVTLSDIFQFSNIYAPSSLIRNFLTDPLMASDCQSYVTFPEVSKISNLPLNKSLGSGDQDSPSFSVRRKSKSSSIPSNPDSRTTSFSSTSRVSQNSSLNSSFSSIYKDWRQSQTSCSSSNIHVINNRNRFLPTRSCLFDLYRSLSQGQTLKTWYESKYMILKENNIDIRRFITFGLEKRIIYRCYSFPVMINAGSREPKEMTPIITKDLVNNDKLLEKRNHNHLLSATGSRNTAQSGNLKPERPSKVSFEMQRVSSLATGKSTMPKLSDEEEGILEESIRNAETFDKICVLLSKPKLEVESYLNELGEFKVINS
notes: Npr2, S. cerevisiae, endogenous subunit of the SEAC (SEACIT, wing); Native protein of the purified complex; two copies in the SEAC; source: endogenous, yeast cells expressing Sea4-TAP or Sea1-TAP; in lysate and co-purified with the tagged subunit (IgG Dynabeads, TEV elution)
With B1 the binding was “binds”.

Source: publication PMC9646525, “Cryo-EM structure of the SEA complex” (Nature, 2022)
